Measured values: paper PMC5431351
These are yes or no findings as the source states them, for the method shown. In cells and extracts the contact can be indirect. Some results given as binding are weak or reduced against the parent protein; the word gives no strength.

By UniProt entry, the sequences of proteins in these tests, tags left out. Where a name states a change or a piece, a line headed by the entry shows the natural chain unless it says otherwise.
UniProt Q9Y6G9: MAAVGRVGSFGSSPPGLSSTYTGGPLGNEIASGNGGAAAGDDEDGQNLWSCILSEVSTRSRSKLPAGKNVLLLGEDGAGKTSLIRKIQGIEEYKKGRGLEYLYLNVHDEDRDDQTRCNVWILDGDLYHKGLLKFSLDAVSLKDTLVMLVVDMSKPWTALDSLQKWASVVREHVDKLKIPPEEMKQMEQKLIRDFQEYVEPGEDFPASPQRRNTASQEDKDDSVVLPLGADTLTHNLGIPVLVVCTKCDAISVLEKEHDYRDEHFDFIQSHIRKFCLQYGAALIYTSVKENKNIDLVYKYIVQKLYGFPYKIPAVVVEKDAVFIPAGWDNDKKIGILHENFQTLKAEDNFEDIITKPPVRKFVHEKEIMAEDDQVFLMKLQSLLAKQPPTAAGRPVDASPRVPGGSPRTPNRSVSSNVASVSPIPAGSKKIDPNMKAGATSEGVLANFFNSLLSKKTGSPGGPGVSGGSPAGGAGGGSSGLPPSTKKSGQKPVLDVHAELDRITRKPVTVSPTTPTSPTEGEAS
UniProt O43237: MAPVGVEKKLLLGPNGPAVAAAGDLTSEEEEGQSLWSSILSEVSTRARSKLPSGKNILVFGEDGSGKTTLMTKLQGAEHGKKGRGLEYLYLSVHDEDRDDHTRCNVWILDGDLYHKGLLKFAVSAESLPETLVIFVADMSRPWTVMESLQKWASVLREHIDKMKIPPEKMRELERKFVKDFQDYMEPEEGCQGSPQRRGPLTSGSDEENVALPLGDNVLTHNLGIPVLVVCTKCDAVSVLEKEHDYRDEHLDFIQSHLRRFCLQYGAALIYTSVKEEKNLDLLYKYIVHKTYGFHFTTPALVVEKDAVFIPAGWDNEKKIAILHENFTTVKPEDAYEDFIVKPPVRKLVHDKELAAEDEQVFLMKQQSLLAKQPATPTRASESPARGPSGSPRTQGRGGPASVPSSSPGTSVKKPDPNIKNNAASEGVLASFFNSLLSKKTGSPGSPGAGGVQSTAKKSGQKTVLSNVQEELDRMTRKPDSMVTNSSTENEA
UniProt P62258: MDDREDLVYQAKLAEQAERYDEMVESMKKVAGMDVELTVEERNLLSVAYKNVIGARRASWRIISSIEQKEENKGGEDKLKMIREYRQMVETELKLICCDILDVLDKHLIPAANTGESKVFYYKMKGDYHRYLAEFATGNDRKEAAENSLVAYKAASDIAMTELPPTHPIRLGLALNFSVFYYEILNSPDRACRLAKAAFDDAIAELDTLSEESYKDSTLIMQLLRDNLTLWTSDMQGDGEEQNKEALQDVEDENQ

What was measured:
[1] = molecular target: MTAP-mVenus-hLIC1 (SBP-tagged human dynein Light Intermediate Chain 1) (human) (UniProt Q9Y6G9); experiment: pull-down; affinity purification of SBP-tagged MTAP-mVenus-hLIC1 or -hLIC2 on a Streptactin-HP column from mitotically enriched lysates of stably expressing cells; lysis buffer 50 mM Tris pH 7.5, 125 mM sodium chloride, 1 mM EGTA, 0.2 NP-40, 5% glycerol; eluates immunoblotted
[2] = molecular target: MTAP-mVenus-hLIC2 (SBP-tagged human dynein Light Intermediate Chain 2) (human) (UniProt O43237); experiment: as above

binding [1]: no binding
binding [2]: binds
Substance: 14-3-3 heterodimer consisting of its ε and ζ proteins (from UniProt P62258 1-255; P63104 1-245) (complex)
